The text below walks through data of PubChem BioAssay AID1347423 (Functional Genomics Laboratory (NCATS/FGL), 2020).

Among all 52,000 sequences or so, about 210 (0.4%) were called active.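 The calls were made as follows: active = gene whose silencing raises cell survival under the drug, median off-target-corrected z-score across its silencing RNAs 2 or more; inactive = the rest.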 The list shows a part of the results.

A short description of this test: Resistance to Poly (ADP-Ribose) Polymerase inhibitor: Gene Identification via Genome-wide siRNA Screen. The settings on record: mouse BRCA2 R2336H ES cells, olaparib, CellTiter-Glo viability; stronger effect = higher value. The source says: The role of Poly (ADP-Ribose) Polymerase (PARP) proteins in DNA repair has been elegantly utilized for the synthetic lethality-based treatment of BRCA-deficient tumors by PARP inhibitors. PARP inhibitors are now being used for treatment of BRCA-deficient breast and ovarian cancers. […] While several mechanisms of drug resistance have been identified, majority of these tumors develop drug resistance due to unknown causes. To identified novel regulators of chemo-resistance in BRCA2-mutated cells, we performed a genome wide siRNA library screen. We have found ES cells expressing a hypomorphic allele of BRCA2 to be hypersensitive to PAPP inhibitors (such as olaparib). We used ES cells expressing a mutant allele of BRCA2 that has a single amino acid substitution at position 2336 (arginine to histidine, R2336H). The screen was conducted using an Ambion (Thermo) Silencer Mouse Genome siRNA collection. The library targets 17,575 mouse genes with 3 siRNAs per gene. TET2 (E130014J05Rik) was identified as a top candidate.
Transfections were performed in 384 well plates (Corning 3707). Plates were coated with 0.1% gelatin in H2O overnight at ambient temperature. Gelatin solution was aspirated (BioTek EL406) and siRNAs were printed using a Bravo VPrep liquid handler integrated within a BioCel automation platform (Agilent). Cell viability was measured using CellTiter Glo (Promega). For transfections, […] of serum free media containing Lipofectamine RNAiMax […] was added to wells containing siRNA (0.8pmol). Lipid and siRNA were allowed to complex for 45 min at ambient temperature before addition of 1000 cells in DMEM, 30% FBS to yield final transfection mixtures containing 20 nM siRNA in DMEM, 15% FBS. PARPi (olaparib, AZD2281) was added 48 h post-transfection (500 nM) and viability (CellTiter Glo, Promega) was assayed 72 h later on a PerkinElmer Envision 2104 Multilabel plate reader. Ambion Silencer Select Negative Control #2 was incorporated on all screening plates (16 wells) and the median negative control value on each plate was used for normalization. An siRNA targeting Trp53 was used as a positive control. This control yielded a median protective effect of ~1.9 fold versus negative control throughout the screen. The median absolute deviation (MAD) based z-score was calculated for each siRNA. Genes were then ranked by taking the median value for all siRNAs tested against a given gene. Scores were also adjusted for seed-based off-target effects to help deprioritize likely false positives.
(In general: In ATP-based viability assays light output follows the ATP content of the culture.)
As to GCUACUCCCUGCAUAUUAGTT against Slamf9, the z-score was inactive: -1.34.

For the sequence GGAGGAUGAGAUGAUGCCATT against Sez6l2, the z-score was inactive: 0.496.

As for GGAAACAACAGAAUAAAGCTT against Chrm1, the z-score is inactive: 0.785.

As for GGGAAGGGUGAAGAACAGGTT against Ifrd2, the z-score was inactive: 0.169.

As for CCUGCAUCACGUUAGUUACTT against Ankrd28, the z-score was inactive: 0.782.

Turning to GGACCCACAACUCCCUUUUTT against Thap7, the z-score was inactive: -0.587.

Consider GGUCUUCUCCGAGUACUUUTT against Ap1m1, for which the z-score is inactive: 0.963.

On to GCAGUGACGACCAAAAAUCTT against Ttc12, for which the z-score is inactive: -0.525.

In the case of GUGUAUCCCAGGCUAUCACTT against V1rc27, the z-score is inactive: 0.0617.

On to GCAUGAAGAGCUAAUGCUATT against Eprs, for which the z-score is inactive: -0.075.

Turning to GGGAUCUGGAUUUAAUUUGTT against Arf5, the z-score is inactive: 0.418.

On to GCCAUCUGUAGUGACCAGATT against Notch2, for which the z-score is inactive: 0.372.

For the sequence GCAGCGUACAAAUCCUUCUTT against Numb, the z-score is inactive: 1.11.

Regarding CCAAAUCGUACUGGAAGACTT against Ttr, the z-score is inactive: -0.00857.

On to GGCUUCAUCAUGCUCAUUGTT against Mllt1, for which the z-score was inactive: 3.37.

Consider GCACAGUGGAUGCAAUCAGTT against Btbd1, for which the z-score is inactive: 0.346.

As to CCAUAGUAGCUACCUUGAUTT against BC055107, the z-score was inactive: -0.49.

Take “GCUGGAUAGCUAAAAUGAUTT against E230026N22Rik”: the z-score was inactive: 0.0925.

Turning to CCAAUUAGCCUAGGUUUGGTT against Olfr799, the z-score is inactive: -1.37.

Turning to GCUUAUCUAUUGAGAGAGATT against Hs3st3b, the z-score is inactive: -0.325.

Consider “GGAACAGGAGAAUGACAUCTT against 9030221A05Rik”, for which the z-score is inactive: -0.724.

Regarding GGGUGAAAGCUGACUUUAATT against Rnh1, the z-score is inactive: -2.

As to GCGGAAACAAUCCAUUUAATT against Pcdhgb7, the z-score was inactive: -0.14.

As for CCAUCUCUCUAAUGAUUGATT against Txndc5, the z-score was inactive: -1.04.

For GGUUUUUCUGAGUUUCCGUTT against Il4i1, the z-score is inactive: -0.196.

Turning to “GAAAUUAGAACAACUUUGGTT against 3830403N18Rik”, the z-score was inactive: -0.632.

Consider GGAAAAAGAAGCAAGAGCUTT against Mark3, for which the z-score was inactive: -0.025.

On to “GCAAAUUAAGAUGUGCUGATT against 2410004I17Rik”, for which the z-score is inactive: -1.36.

For CCAAUCUCCUGUUGUUAAATT against Mlf1, the z-score was inactive: 0.426.

On to CGAUCAUCGCUCAGUAUAATT against Dlgh4, for which the z-score was inactive: -1.48.

For GGUUCAGAAUUUUUCCUUCTT against Olfr330, the z-score was inactive: 1.18.

As to “GGGAAAAAGCUGGGAAUAUTT against A930014K01Rik”, the z-score was inactive: -1.51.

In the case of GGAGGAUCUUUCAAAGAGATT against Egfl8, the z-score is inactive: 1.87.

In the case of “GGGCAGUCAAAACGAAGAGTT against 2610206B13Rik”, the z-score is inactive: -1.48.

With GGAUUUAACAGAGAUACUGTT against H2-M11, the z-score was inactive: -0.405.

On to GCAUAGACAUGGCUGCAUUTT against Arntl2, for which the z-score was inactive: -0.228.

For GCCAGAUGGUACGAAUGGCTT against Cdc5l, the z-score is inactive: -0.638.

In the case of GGCCAGAAGAACUAACAGUTT against Cept1, the z-score is inactive: -1.8.

With GGAUGACGUAAUUGACGGCTT against Cyp19a1, the z-score is inactive: 1.47.

As for “CCCAGAUGAACAAAUGACCTT against A630018P17Rik”, the z-score is inactive: 0.748.

Turning to GGCAAAGAGAGAAUUAAAUTT against Ssx2ip, the z-score was inactive: 0.322.

Turning to GGGUCAUUUCCUAUGCAGGTT against Olfr866, the z-score is inactive: -0.404.

For GGUUCAACUCUGUGGUCACTT against C1qg, the z-score is inactive: 0.585.

On to “GGAAAUUCACUUCAAUGAUTT against F730015K02Rik”, for which the z-score was inactive: 0.22.

Consider “GCUGUAGUUUCAGUAGAUUTT against 3110001H15Rik”, for which the z-score was inactive: -0.926.

As for GGGCUUCCUUAUGAAUUGATT against Rbmx2, the z-score is inactive: 0.821.

As for GGAUUCCUUUCACAAGGCCTT against Rab17, the z-score is inactive: 1.63.

Regarding GCGUGGGAUGCUCAUUUUATT against AY534253, the z-score was inactive: 0.914.

As for GCUUUAGUUGCUUUCCCUGTT against Try10l, the z-score was inactive: -1.24.

On to GGCCUCACAGUGCUUUCUCTT against Olfr1232, for which the z-score is inactive: 0.68.

On to GGCUAUCUUGCUGCUGGUUTT against V1rc16, for which the z-score was inactive: 1.44.

As for GGAUAUACAUGGUCUGUUUTT against Birc1e, the z-score is inactive: 0.0633.

Turning to GCUCCUUUAGUCCUCACCATT against Mrpl10, the z-score is inactive: -2.8.

For GGAAUGGAGUCCUAGUCCATT against Spdef, the z-score was inactive: -0.609.

For the sequence CCUGAUGGCUUUCAUCUUATT against Olfr815, the z-score was inactive: 0.494.

In the case of GCCAGAACCUGACUUAUAUTT against Mia2, the z-score is inactive: -0.739.

In the case of GGUGGAUUCUCCACUGUUUTT against Bmp2k, the z-score was inactive: 0.0882.

On to CGCGGCUUCUCAAAAAGCATT against Nkx6-2, for which the z-score was inactive: 0.836.

With CCAAGAGCCUUUCUAACAATT against Pnrc2, the z-score is inactive: -1.09.

In the case of CCCUAUGGUUUAUAUGAAUTT against Ptk2b, the z-score was inactive: 0.474.

Consider GCCGGUGACUGUUGUGUAUTT against Mppe1, for which the z-score is inactive: 0.286.

For the sequence AGUGGGCUUCAAAUUUCCATT against Aym1, the z-score is inactive: 0.293.

GGAAGAGAAUGUGAAGCUGTT against Aqp3: the z-score is inactive: 2.32.

For GGGAGAACACAUCUACUGATT against Slamf6, the z-score was inactive: -0.624.

Regarding GGAGGAUUCCCUUGUUCAATT against Rhbdl7, the z-score was inactive: -0.78.

With CCUUCUUGAAAACUCCAAGTT against Lum, the z-score was inactive: 0.0735.

On to “GGGUAAAAAGUUUGACAAGTT against 2810485I05Rik”, for which the z-score is inactive: 1.19.
